# Reference: PubChem BioAssay AID540256 (National Center for Advancing Translational Sciences (NCATS), 2011)
# “And” between values parts separate entries of the source, which are not always exact repeats. Equal entries are not always repeated. Among all 300,000 compounds or so, about 3,700 (1.2%) were called active. The shares of active, inactive and inconclusive entries below differ from those in the screen. Calls come from the whole dose curve; tested in HEK293 cells. Potencies beside an inconclusive call are fits to weak or partial responses and may not hold up.
# Test: qHTS for Inhibitors of binding or entry into cells for Lassa Virus; note: nearly all actives have a fitted effect of over 50% in size
# Details: Lassa virus pseudotype entry inhibition, cell reporter; activity change, negative = inhibition: at 37.9 µM (top of the series) unless noted
# % is set by controls: 0 for no effect and ±100 for the full control effect; potency is the fitted concentration of half-maximal effect.
SMILES,Potency,"activity change, negative = inhibition"
O=C1C=C(Nc2ccccc2O)c2ccccc2C1=O,"inconclusive: 15.8 µM [inhibitor, partial curve, poor fit]",
Cc1cccc(-c2nc3c(c(SCC(=O)N4CCOCC4)n2)Cc2c(CO)cnc(C)c2O3)c1,"inconclusive: 7.94 µM [inhibitor, partial curve, poor fit]",
CC(OC(=O)c1ccc2c(=O)n3c(nc2c1)CCCCC3)C(N)=O (stereo unspecified),"inconclusive: 7.08 µM [activator, partial curve, poor fit]",
CCN(CC(=O)Nc1c(F)cccc1F)C(=O)c1ccc(C(=O)c2ccccc2)cc1,"inconclusive: 11.2 µM [inhibitor, partial curve, poor fit]",
COc1ccc(NC(=O)C(c2ccc(C)cc2)N(C)C(=O)/C=C\c2ccc3c(c2)OCO3)cc1 (stereo unspecified),"inconclusive: 3.98 µM [inhibitor, full curve, poor fit]",
Clc1ccc2c(NCCNC3CCCCC3)ccnc2c1,"inconclusive: 28.2 µM [inhibitor, single point]",
CCc1cc2c(COC(=O)c3cccc(NS(C)(=O)=O)c3)cc(=O)oc2cc1O,"inconclusive: 12.6 µM [inhibitor, partial curve, poor fit]",
OC(CCN1CCCCC1)(c1ccccc1)C1CC2C=CC1C2 (stereo unspecified),"inconclusive: 32.6 µM [inhibitor, single point]",
CN1CCN(CC(=O)Nc2cccc(S(=O)(=O)N(C)c3ccccc3)c2)CC1,,inactive: 2.24%
N#Cc1cc(-c2ccccc2)cnc1Sc1ccc(Cl)cc1,"inconclusive: 29.1 µM [inhibitor, single point]",
Cc1nc([N+](=O)[O-])c(Br)n1CC(=O)c1ccc2ccccc2c1,"inconclusive: 10 µM [inhibitor, partial curve, poor fit]",
CC(C)(C)NC(=O)NC(=O)COC(=O)CCC1CCCC1,"inconclusive: 22.4 µM [inhibitor, single point]",
Cc1ccc(Cl)cc1N(CC(=O)NC1CCCCC1)S(C)(=O)=O,"inconclusive: 0.206 µM [inhibitor, full curve]",
COc1ccc(NC(=O)CN(C)C(=O)CNC(=O)c2ccc(C)s2)cc1,,inactive: 8.09%
Cc1ccc2c(c1)CCCN2C(=O)CCc1nc2ccccc2c(=O)[nH]1,"inconclusive: 10 µM [inhibitor, partial curve, poor fit]",
O=c1c2ccccc2nc(SCC2CCCCO2)n1-c1ccccc1 (stereo unspecified),"inconclusive: 1.64 µM [inhibitor, full curve, poor fit]",
CC(C)c1ccc(NC2CCCN(C(=O)c3ccnc(Cl)c3)C2)cc1 (stereo unspecified),"inconclusive: 35.5 µM [inhibitor, single point]",
C=CC[n+]1cccc(-c2cc3ccc(C)cc3[nH]2)c1,,inactive: -19.5% [at 46.1 µM]
O=C(CCSc1ccccc1)N1CCN(c2ccccc2)CC1,,inactive: -19.1% [at 46.1 µM]
CCOC(=O)C1=C(C)NC(=O)NC1c1ccc(Br)o1 (stereo unspecified),"inconclusive: 0.794 µM [inhibitor, single point]",
CCc1ccc(OC(C)c2nc(-c3ccc(-n4cccc4)cc3)no2)cc1 (stereo unspecified),"inconclusive: 35.5 µM [activator, single point]",

SMILES,Potency,"activity change, negative = inhibition"
CSc1nc2ccc(NC(=O)c3ccco3)cc2s1,,inactive: -5.21%
COc1ccc(-c2ccc(C#N)c(SCC(=O)OCc3ccccc3)n2)cc1OC,"inconclusive: 3.55 µM [inhibitor, partial curve, poor fit]",
COc1cc(C)ccc1OCC(=O)OCC(=O)c1[nH]c(C)c(C(C)=O)c1C,,inactive: 1.53%
Cc1ccc(O)c(-c2cc(C(=O)NCc3ccccc3)[nH]n2)c1,"inconclusive: 0.891 µM [inhibitor, single point]",
COc1ccc(CCNC(=O)c2nonc2N)cc1OC,"inconclusive: 1.16 µM [activator, single point]",
O=C(Oc1ccc2c(c1)CCC2)N1CCOCC1,"inconclusive: 23.1 µM [activator, single point]",
Cc1nc2ccccc2c(=O)n1NC(=O)Cc1ccc(Br)cc1,"inconclusive: 4.61 µM [inhibitor, single point]",
O=C(OCCCOc1ccc(F)cc1)c1ccc(O)cc1O,,inactive: -7.2%
O=C(Nc1ccc2oc(=O)ccc2c1)c1ccc(-c2cccc([N+](=O)[O-])c2)o1,"inconclusive: 28.2 µM [inhibitor, single point]",
Cc1ccc(S(=O)(=O)N2CCC(=O)N(CCOCc3ccccc3C)CC2)cc1,"inconclusive: 2.23 µM [activator, full curve, poor fit] and inconclusive: 29.1 µM [inhibitor, single point]",
COc1ccc(CCNC(=O)CCCOc2ccc(Cl)cc2)cc1OC,"inconclusive: 7.94 µM [inhibitor, partial curve, poor fit]",
Cc1cc(C)n(-c2nncn2NC(=O)c2ccc(Cl)cc2O)n1,,inactive: -1.22%
CCOC(=O)c1ccccc1NC(=O)CSc1ncc(CO)n1Cc1ccc(C)cc1,"inconclusive: 14.1 µM [inhibitor, single point]",
Cc1nn2c(=O)cc(CN(C)c3ccccc3)nc2s1,,inactive: -3.76% [at 46.1 µM]
C/C(=N\NC(N)=S)c1cc(-c2ccccc2)c(-c2ccccc2)s1,"inconclusive: 10 µM [inhibitor, partial curve]",
CC1(C)OC(c2ccccc2)=C/C(=C/C=C2C(=O)NC(=S)NC2=O)O1,"inconclusive: 7.94 µM [inhibitor, partial curve, poor fit]",
CSc1cccc(NC(=S)N2CCCN(Cc3ccc(F)cc3)C2)c1,"inconclusive: 35.5 µM [inhibitor, single point]",
CC(C)(C)c1ccc(Cn2c(Cc3ccccc3)nc3ccccc32)cc1,"inconclusive: 5.62 µM [inhibitor, full curve, poor fit]",
CCOc1ccc(S(=O)(=O)Nc2cccc(C(=O)NCC3(N4CCCCC4)CCCCC3)c2)cc1,"inconclusive: 35.5 µM [inhibitor, single point]",
COC(=O)CN1C(=S)N(c2ccc(Cl)cc2)C(=O)C1CC(=O)Nc1ccc(Cl)cc1 (stereo unspecified),"inconclusive: 35.5 µM [inhibitor, single point]",

# 3 compounds out of the list, ordered by length of the SMILES, smallest number first:
SMILES,Potency,"activity change, negative = inhibition"
Cc1nc2ccccc2c(=O)n1NC(=O)Cc1ccc(Br)cc1,"inconclusive: 4.61 µM [inhibitor, single point]",
CC(C)(C)c1ccc(Cn2c(Cc3ccccc3)nc3ccccc32)cc1,"inconclusive: 5.62 µM [inhibitor, full curve, poor fit]",
CCOC(=O)c1ccccc1NC(=O)CSc1ncc(CO)n1Cc1ccc(C)cc1,"inconclusive: 14.1 µM [inhibitor, single point]",
